Our source for the binding signal (log2 enrichment (interaction score)) values is article PMC8384837.

Details in all cases: yeast three-hybrid, YBZ-1, SC-Leu-His + 0.5 mM 3-AT, 4 days
For assay [1], the target named is T1, PUM1 PUF domain R3-THE R4-TFR R7-NPG C935T + R936H + Q939E + N971T + H972F + Q975R + S1079N + N1080P + E1083G (UniProt Q14671).
T1 sequence: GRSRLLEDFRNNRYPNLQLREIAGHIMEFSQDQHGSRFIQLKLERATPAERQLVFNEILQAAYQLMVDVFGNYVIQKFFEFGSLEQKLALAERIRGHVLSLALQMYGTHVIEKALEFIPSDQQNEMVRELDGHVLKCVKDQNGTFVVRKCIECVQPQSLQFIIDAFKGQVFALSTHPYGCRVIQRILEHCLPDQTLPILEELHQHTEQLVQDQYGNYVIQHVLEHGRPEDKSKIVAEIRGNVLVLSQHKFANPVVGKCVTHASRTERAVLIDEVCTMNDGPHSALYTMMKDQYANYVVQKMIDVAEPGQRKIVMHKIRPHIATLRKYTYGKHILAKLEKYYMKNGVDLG

In assay [2] the target is T2, PUM1 PUF domain R5-PHQ R6-SWD C1007P + R1008H + N1043S + Y1044W + Q1047D (UniProt Q14671).
T2 sequence: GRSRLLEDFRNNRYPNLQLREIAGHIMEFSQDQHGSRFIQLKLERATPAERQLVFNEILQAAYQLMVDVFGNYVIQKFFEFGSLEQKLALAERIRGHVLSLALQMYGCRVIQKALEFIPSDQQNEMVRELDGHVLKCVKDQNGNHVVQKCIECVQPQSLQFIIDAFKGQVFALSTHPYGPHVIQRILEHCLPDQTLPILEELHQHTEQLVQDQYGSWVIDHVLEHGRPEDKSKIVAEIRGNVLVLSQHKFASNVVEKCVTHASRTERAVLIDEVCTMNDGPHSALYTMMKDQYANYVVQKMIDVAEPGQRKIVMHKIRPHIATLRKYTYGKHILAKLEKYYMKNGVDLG

In assay [3] the target is T3, PUM1 PUF domain R6-SWD R7-NPG N1043S + Y1044W + Q1047D + S1079N + N1080P + E1083G (Homo sapiens) (UniProt Q14671).
T3 sequence: T2 sequence with P180C, H181R, S252N, N253P, E256G

Assay [4] has as its target T4, PUM1 PUF domain R3-THE R4-TFR R7-NPG C935T + R936H + Q939E + N971T + H972F + Q975R + S1079N + N1080P + E1083G (Homo sapiens) (UniProt Q14671).
T4 sequence: T1 sequence

Numbering of substitutions follows the chain as printed. This is one part of the list. For some of these results: At the low end of the ranking the order means little. For some of these results: The exact form of the protein is not confirmed. Where only a bound is given, the exact number is not on record here.

In the case of “GGCUAGAACUAGUGGAUCCCCCGGCGCCCGGCGGCUCGAGCCCGGGUAAGUAUACCUAGUCUGCAUGCCGCCGGGCGCCAUGCCUGCAGGUCGACUCUAGAAAACAUG”, the results for the binding signal (log2 enrichment (interaction score)) in assay [1] and in assay [2] were < -2.24 and -7, respectively.

With “GGCUAGAACUAGUGGAUCCCCCGGCGCCCGGCGGCUCGAGCCCGGGUAAGUGGGAAUGGUCUGCAUGCCGCCGGGCGCCAUGCCUGCAGGUCGACUCUAGAAAACAUG”, the binding signal (log2 enrichment (interaction score)) is -2.78 in assay [1] and -8.81 in assay [2].

In the case of “GGCUAGAACUAGUGGAUCCCCCGGCGCCCGGCGGCUCGAGCCCGGGUAAGGGGAAGAAGUCUGCAUGCCGCCGGGCGCCAUGCCUGCAGGUCGACUCUAGAAAACAUG”, the binding signal (log2 enrichment (interaction score)) in assay [1] is -2.29; in assay [2], -7.31; in assay [3] it was -0.79.

As for “GGCUAGAACUAGUGGAUCCCCCGGCGCCCGGCGGCUCGAGCCCGGGUAAGUUGUCGUCGUCUGCAUGCCGCCGGGCGCCAUGCCUGCAGGUCGACUCUAGAAAACAUG”, the binding signal (log2 enrichment (interaction score)) in assay [4] is < -0.92; in assay [3] it was -0.59.

For the sequence “GGCUAGAACUAGUGGAUCCCCCGGCGCCCGGCGGCUCGAGCCCGGGUAAGUUCAUCUCGUCUGCAUGCCGCCGGGCGCCAUGCCUGCAGGUCGACUCUAGAAAACAUG”, in assay [1], the binding signal (log2 enrichment (interaction score)) was -2.35.

Take “GGCUAGAACUAGUGGAUCCCCCGGCGCCCGGCGGCUCGAGCCCGGGUAAGCUGAAACAGUCUGCAUGCCGCCGGGCGCCAUGCCUGCAGGUCGACUCUAGAAAACAUG”: the binding signal (log2 enrichment (interaction score)) is -1.47 in assay [4] and -6.7 in assay [2].

For “GGCUAGAACUAGUGGAUCCCCCGGCGCCCGGCGGCUCGAGCCCGGGUAAGUUUCGAUUGUCUGCAUGCCGCCGGGCGCCAUGCCUGCAGGUCGACUCUAGAAAACAUG”, the binding signal (log2 enrichment (interaction score)) in assay [1] was -2.7.

Turning to “GGCUAGAACUAGUGGAUCCCCCGGCGCCCGGCGGCUCGAGCCCGGGUAAGCUGAAAGAGUCUGCAUGCCGCCGGGCGCCAUGCCUGCAGGUCGACUCUAGAAAACAUG”, the binding signal (log2 enrichment (interaction score)) is < -1.39 in assay [4], < -7.67 in assay [2] and -1.79 in assay [3].

“GGCUAGAACUAGUGGAUCCCCCGGCGCCCGGCGGCUCGAGCCCGGGUAAGGGGAACUUGUCUGCAUGCCGCCGGGCGCCAUGCCUGCAGGUCGACUCUAGAAAACAUG”: the binding signal (log2 enrichment (interaction score)) is < -1.8 in assay [4], < -6.79 in assay [2] and -1.35 in assay [3].

Turning to “GGCUAGAACUAGUGGAUCCCCCGGCGCCCGGCGGCUCGAGCCCGGGUAAGUUGUAGAAGUCUGCAUGCCGCCGGGCGCCAUGCCUGCAGGUCGACUCUAGAAAACAUG”, the results for the binding signal (log2 enrichment (interaction score)) in assay [1] and in assay [2] were -2.19 and < -7.92, respectively.

For “GGCUAGAACUAGUGGAUCCCCCGGCGCCCGGCGGCUCGAGCCCGGGUAAGGGGACAUAGUCUGCAUGCCGCCGGGCGCCAUGCCUGCAGGUCGACUCUAGAAAACAUG”, the results for the binding signal (log2 enrichment (interaction score)) in assay [4] and in assay [2] were -1.32 and < -7.29, respectively.

Turning to “GGCUAGAACUAGUGGAUCCCCCGGCGCCCGGCGGCUCGAGCCCGGGUAAGCUCAGAUGGUCUGCAUGCCGCCGGGCGCCAUGCCUGCAGGUCGACUCUAGAAAACAUG”, the binding signal (log2 enrichment (interaction score)) in assay [4] was -1.05; in assay [3], -1.37.

In the case of “GGCUAGAACUAGUGGAUCCCCCGGCGCCCGGCGGCUCGAGCCCGGGUAAGUUUCAAAAGUCUGCAUGCCGCCGGGCGCCAUGCCUGCAGGUCGACUCUAGAAAACAUG”, the binding signal (log2 enrichment (interaction score)) in assay [1] is -2.01; in assay [2], -7.8.

With “GGCUAGAACUAGUGGAUCCCCCGGCGCCCGGCGGCUCGAGCCCGGGUAAGACUACGUGGUCUGCAUGCCGCCGGGCGCCAUGCCUGCAGGUCGACUCUAGAAAACAUG”, the binding signal (log2 enrichment (interaction score)) in assay [1] is -2.49; in assay [3] it was -1.57.

Take “GGCUAGAACUAGUGGAUCCCCCGGCGCCCGGCGGCUCGAGCCCGGGUAAGGGGUCGUAGUCUGCAUGCCGCCGGGCGCCAUGCCUGCAGGUCGACUCUAGAAAACAUG”: the binding signal (log2 enrichment (interaction score)) was -2.15 in assay [1] and < -8.13 in assay [2].

On to “GGCUAGAACUAGUGGAUCCCCCGGCGCCCGGCGGCUCGAGCCCGGGUAAGUAUGGCUCGUCUGCAUGCCGCCGGGCGCCAUGCCUGCAGGUCGACUCUAGAAAACAUG”, for which, in assay [1], the binding signal (log2 enrichment (interaction score)) is -2.91.

Consider “GGCUAGAACUAGUGGAUCCCCCGGCGCCCGGCGGCUCGAGCCCGGGUAAGUUAAGGUAGUCUGCAUGCCGCCGGGCGCCAUGCCUGCAGGUCGACUCUAGAAAACAUG”, for which the binding signal (log2 enrichment (interaction score)) is -1.92 in assay [4] and < -8.49 in assay [2].
